Measurements as given in the supplement of paper PMC10849652.
The other results are listed elsewhere or left out.

Protein sequences, listed by entry. Tags and fused reporters are not part of them. Lines headed by an entry give the natural chain unless they say otherwise; changes in a name come on top.
UniProt Q86YQ8: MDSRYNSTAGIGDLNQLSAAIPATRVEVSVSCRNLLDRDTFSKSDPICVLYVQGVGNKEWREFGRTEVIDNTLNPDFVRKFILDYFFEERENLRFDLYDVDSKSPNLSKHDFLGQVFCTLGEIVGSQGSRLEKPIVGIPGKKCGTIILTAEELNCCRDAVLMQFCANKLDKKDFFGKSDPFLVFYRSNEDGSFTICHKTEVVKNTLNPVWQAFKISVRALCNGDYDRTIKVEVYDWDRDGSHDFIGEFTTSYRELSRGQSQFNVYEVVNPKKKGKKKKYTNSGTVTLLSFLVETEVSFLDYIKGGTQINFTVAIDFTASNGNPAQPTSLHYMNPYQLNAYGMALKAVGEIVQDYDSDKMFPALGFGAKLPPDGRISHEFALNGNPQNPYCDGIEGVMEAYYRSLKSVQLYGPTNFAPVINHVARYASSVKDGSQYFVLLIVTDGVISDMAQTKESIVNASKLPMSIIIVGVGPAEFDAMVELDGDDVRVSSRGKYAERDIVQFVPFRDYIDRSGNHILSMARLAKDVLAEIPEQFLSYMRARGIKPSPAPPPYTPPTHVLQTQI
UniProt P61923: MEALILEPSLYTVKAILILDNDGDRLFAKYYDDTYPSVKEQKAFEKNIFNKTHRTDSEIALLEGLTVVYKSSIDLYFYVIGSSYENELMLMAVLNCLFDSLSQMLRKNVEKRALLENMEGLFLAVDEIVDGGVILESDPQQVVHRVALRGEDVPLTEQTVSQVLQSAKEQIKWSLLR
UniProt A4D0V7: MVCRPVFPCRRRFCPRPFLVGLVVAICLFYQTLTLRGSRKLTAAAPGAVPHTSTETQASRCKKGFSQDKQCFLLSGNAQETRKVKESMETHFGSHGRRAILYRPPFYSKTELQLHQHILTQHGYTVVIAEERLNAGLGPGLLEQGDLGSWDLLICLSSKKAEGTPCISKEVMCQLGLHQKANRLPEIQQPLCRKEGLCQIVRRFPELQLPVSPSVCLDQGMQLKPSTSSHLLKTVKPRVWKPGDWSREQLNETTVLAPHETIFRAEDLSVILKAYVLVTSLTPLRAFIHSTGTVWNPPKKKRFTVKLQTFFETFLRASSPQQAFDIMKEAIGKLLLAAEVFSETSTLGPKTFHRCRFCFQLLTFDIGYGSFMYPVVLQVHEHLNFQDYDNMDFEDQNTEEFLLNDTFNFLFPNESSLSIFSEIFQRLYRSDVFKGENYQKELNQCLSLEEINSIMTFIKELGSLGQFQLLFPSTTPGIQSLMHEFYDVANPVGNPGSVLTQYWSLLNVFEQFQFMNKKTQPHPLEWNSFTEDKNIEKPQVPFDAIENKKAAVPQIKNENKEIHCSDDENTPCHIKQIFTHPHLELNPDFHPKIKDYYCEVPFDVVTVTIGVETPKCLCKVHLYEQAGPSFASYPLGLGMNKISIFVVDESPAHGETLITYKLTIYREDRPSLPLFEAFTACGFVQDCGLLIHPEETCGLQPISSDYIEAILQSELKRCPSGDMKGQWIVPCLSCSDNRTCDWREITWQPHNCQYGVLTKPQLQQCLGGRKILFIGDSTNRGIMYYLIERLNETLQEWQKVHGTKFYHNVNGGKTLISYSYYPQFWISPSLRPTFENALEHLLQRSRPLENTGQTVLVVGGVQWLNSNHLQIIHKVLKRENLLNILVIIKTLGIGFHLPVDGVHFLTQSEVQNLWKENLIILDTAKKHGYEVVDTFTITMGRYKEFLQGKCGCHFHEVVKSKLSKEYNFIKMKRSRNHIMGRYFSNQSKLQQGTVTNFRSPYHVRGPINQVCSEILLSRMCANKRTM
UniProt Q96BR5: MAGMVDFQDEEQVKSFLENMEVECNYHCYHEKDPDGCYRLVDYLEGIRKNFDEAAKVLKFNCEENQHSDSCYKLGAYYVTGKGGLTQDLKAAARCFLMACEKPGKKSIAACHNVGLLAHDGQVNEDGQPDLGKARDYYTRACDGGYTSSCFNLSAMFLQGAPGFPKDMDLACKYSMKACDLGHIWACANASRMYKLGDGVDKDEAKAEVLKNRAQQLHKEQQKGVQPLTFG
UniProt O75976: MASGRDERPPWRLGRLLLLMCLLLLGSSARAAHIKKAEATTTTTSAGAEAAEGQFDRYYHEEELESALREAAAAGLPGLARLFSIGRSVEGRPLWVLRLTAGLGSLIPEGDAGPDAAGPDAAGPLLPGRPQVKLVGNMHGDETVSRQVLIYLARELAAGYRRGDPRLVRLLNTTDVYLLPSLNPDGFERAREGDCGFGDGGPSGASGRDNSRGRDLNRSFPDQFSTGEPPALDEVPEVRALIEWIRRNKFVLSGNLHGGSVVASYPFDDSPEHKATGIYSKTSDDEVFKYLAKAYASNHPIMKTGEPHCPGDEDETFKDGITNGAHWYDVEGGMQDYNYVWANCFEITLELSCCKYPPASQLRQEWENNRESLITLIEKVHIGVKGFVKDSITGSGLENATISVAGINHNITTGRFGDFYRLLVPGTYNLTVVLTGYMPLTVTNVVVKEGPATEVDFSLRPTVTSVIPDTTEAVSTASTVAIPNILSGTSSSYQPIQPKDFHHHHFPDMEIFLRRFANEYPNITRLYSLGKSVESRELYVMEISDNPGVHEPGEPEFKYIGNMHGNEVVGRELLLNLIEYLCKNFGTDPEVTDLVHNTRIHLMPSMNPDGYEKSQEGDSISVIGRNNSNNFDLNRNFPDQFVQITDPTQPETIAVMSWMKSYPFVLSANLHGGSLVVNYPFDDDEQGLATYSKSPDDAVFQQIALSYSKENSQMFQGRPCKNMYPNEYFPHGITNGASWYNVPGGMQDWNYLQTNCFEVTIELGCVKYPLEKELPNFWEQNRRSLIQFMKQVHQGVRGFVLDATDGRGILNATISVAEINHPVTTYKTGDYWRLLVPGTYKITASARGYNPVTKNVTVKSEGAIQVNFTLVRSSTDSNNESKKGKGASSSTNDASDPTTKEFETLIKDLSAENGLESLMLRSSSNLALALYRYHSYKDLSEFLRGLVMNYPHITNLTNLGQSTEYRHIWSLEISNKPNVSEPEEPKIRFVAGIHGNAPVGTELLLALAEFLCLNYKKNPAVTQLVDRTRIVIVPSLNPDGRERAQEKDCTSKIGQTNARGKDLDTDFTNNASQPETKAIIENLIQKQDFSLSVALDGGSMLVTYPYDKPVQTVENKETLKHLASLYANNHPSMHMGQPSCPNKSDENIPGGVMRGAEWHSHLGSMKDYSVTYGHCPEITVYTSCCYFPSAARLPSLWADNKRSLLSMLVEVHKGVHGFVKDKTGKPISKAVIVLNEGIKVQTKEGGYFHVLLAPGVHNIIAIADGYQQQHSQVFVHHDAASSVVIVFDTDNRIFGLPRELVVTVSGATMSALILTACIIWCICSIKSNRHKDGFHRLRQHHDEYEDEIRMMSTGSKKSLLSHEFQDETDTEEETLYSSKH
UniProt Q8N129: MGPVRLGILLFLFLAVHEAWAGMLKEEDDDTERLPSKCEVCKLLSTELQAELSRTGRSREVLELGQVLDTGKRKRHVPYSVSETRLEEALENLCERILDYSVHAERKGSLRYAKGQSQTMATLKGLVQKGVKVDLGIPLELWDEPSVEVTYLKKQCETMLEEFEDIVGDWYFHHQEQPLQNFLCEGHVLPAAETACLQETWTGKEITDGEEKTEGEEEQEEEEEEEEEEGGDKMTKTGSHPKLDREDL
UniProt Q05707: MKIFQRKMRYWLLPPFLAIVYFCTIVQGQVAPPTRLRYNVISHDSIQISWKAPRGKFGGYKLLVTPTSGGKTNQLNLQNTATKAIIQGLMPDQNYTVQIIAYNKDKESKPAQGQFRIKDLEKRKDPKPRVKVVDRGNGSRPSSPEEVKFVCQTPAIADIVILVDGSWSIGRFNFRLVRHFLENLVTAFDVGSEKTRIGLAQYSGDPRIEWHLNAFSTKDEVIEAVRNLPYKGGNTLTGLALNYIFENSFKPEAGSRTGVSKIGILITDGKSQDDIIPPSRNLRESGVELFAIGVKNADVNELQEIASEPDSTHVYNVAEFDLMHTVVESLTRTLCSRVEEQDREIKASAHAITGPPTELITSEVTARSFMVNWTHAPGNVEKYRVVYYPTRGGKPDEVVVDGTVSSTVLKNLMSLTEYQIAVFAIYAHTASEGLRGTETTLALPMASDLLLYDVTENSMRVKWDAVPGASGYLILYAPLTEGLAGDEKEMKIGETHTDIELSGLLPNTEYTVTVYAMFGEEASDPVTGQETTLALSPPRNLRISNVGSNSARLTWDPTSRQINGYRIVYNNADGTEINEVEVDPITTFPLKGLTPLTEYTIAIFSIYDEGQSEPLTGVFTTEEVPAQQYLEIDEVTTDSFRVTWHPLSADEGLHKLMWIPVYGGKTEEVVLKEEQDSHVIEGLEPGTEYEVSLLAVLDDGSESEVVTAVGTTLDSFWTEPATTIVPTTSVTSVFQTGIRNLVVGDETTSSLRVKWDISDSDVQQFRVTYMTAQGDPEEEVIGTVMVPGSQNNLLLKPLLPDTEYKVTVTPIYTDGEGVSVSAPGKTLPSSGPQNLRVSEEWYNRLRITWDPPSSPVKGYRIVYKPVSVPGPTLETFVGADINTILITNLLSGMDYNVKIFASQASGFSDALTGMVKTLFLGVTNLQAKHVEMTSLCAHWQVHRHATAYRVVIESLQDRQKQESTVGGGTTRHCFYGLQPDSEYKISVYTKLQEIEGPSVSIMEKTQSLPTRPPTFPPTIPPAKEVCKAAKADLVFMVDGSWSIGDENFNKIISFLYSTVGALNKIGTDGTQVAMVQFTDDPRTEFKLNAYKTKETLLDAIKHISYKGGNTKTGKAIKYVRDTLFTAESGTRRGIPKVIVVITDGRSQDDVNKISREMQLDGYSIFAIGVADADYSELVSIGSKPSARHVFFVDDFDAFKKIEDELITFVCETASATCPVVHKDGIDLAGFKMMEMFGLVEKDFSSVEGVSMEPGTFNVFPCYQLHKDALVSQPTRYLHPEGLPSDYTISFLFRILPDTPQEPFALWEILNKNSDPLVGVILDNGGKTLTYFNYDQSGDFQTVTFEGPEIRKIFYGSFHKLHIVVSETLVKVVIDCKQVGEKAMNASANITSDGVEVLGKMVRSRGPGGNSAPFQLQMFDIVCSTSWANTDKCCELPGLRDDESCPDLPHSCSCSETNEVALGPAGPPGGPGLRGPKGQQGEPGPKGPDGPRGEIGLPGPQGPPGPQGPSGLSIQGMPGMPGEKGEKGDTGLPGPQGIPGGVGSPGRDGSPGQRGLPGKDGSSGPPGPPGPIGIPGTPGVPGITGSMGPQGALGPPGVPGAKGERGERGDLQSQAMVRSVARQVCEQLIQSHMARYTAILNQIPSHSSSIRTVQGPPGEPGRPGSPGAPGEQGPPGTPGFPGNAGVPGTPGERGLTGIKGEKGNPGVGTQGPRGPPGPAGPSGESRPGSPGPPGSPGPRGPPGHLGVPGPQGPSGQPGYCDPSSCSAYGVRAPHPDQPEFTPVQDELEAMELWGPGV
UniProt Q9UNS2: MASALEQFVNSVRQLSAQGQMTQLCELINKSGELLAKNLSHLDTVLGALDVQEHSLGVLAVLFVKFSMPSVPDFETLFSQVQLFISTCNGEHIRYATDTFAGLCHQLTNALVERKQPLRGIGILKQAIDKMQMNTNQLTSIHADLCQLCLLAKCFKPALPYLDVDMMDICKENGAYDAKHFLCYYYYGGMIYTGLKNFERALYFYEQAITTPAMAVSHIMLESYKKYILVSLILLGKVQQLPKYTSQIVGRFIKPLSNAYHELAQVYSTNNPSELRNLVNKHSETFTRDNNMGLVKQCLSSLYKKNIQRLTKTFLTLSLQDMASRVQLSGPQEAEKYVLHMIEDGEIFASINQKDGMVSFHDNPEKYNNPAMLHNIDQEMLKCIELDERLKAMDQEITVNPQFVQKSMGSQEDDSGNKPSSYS
UniProt Q99829: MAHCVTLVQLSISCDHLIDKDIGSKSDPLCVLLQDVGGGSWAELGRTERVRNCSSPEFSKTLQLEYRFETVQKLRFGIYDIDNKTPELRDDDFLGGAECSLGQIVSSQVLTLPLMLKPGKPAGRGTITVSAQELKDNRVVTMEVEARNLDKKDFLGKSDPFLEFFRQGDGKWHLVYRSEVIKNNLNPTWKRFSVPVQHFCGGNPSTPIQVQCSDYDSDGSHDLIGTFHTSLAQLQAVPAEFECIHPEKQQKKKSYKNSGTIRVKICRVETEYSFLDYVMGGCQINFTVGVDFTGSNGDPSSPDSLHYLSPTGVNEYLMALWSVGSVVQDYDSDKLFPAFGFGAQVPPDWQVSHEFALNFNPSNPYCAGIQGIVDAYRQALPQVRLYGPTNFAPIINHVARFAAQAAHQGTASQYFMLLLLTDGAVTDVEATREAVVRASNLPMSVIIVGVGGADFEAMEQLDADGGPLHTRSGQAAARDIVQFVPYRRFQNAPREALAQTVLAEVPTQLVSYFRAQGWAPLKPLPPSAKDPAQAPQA
UniProt Q99807: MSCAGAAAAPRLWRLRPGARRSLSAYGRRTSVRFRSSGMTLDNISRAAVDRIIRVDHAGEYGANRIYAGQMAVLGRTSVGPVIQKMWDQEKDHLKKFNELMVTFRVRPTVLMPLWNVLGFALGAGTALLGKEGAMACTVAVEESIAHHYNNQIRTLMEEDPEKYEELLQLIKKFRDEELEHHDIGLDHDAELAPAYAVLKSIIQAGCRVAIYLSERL

What was measured:
Assay in all cases: log2 fold change, soluble protein after heating vs DMSO (PISA); higher = thermal stabilisation; K562 lysate, 10 uM; active = over 0.2 and 3.5 SD of the protein, either way, in both replicates (recomputed)
nilotinib = compound: Cc1cn(-c2cc(NC(=O)c3ccc(C)c(Nc4nccc(-c5cccnc5)n4)c3)cc(C(F)(F)F)c2)cn1 [nilotinib]
Method in brief: (§1)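 Log-two fold change in thermal stability relative to solvent controls is reported from duplicates. For each sample, crude K562 extract from dounce-homogenised pellets in PBS pH 7.4 with 1 mM MgCl2, at 1 mg/mL protein, was treated with 10 μM compound for 30 min. Aliquots heated for 3 min across 48°C-58°C were pooled, brought to 0.5% NP-40 at 4°C and cleared at 21,000xg for 90 min. The supernatant was quantified by TMTpro 16plex LC-MS/MS with channel sums equalised.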

[1] = compound: Cc1nc(Nc2n[nH]c3c2CN(C(=O)N[C@H](CN(C)C)c2ccccc2)C3(C)C)c2sccc2n1
Method in brief: as §1

dasatinib = compound: Cc1nc(Nc2ncc(C(=O)Nc3c(C)cccc3Cl)s2)cc(N2CCN(CCO)CC2)n1 [dasatinib]
Method in brief: as §1

[2] = compound: Cc1ncc(-c2ccnc(Nc3ccc(S(C)(=O)=O)cc3)n2)n1C(C)C
Method in brief: as §1

[3] = compound: Cn1cc(-c2ccc3c(c2)CCN3C(=O)Cc2cccc(C(F)(F)F)c2)c2c(N)ncnc21
Method in brief: as §1

quisinostat = compound: Cn1cc(CNCC2CCN(c3ncc(C(=O)NO)cn3)CC2)c2ccccc21 [quisinostat]
Method in brief: as §1

tipifarnib = compound: Cn1cncc1[C@@](N)(c1ccc(Cl)cc1)c1ccc2c(c1)c(-c1cccc(Cl)c1)cc(=O)n2C [tipifarnib]
Method in brief: as §1

[4] = compound: NC(=O)Nc1cc(-c2cccc(F)c2)sc1C(=O)N[C@H]1CCCNC1
Method in brief: as §1

[5] = compound: NC(=O)c1cnc(N[C@@H]2CCCC[C@@H]2N)nc1Nc1cccc(-n2nccn2)c1
Method in brief: as §1

[6] = compound: NC1(c2ccc(-c3nc4ccn5c(=O)[nH]nc5c4cc3-c3ccccc3)cc2)CCC1
Method in brief: as §1

[7] = compound: NCC(=O)Nc1ccc(-n2nc(C(F)(F)F)cc2-c2ccc3c(ccc4ccccc43)c2)cc1
Method in brief: as §1

vorinostat = compound: O=C(CCCCCCC(=O)Nc1ccccc1)NO [vorinostat]
Method in brief: as §1

silmitasertib = compound: O=C(O)c1ccc2c(c1)nc(Nc1cccc(Cl)c1)c1ccncc12 [silmitasertib]
Method in brief: as §1

[8] = compound: O=C1NC(=O)C(c2cnc3ccccn23)=C1c1cn2c3c(cc(F)cc13)CN(C(=O)N1CCCCC1)CC2
Method in brief: as §1

entospletinib = compound: c1cn2cc(-c3ccc4cn[nH]c4c3)nc(Nc3ccc(N4CCOCC4)cc3)c2n1 [entospletinib]
Method in brief: as §1

Row | Target | log2 fold change (nilotinib) | log2 fold change [1] | log2 fold change (dasatinib) | log2 fold change [2] | log2 fold change [3] | log2 fold change (quisinostat) | log2 fold change (tipifarnib) | log2 fold change [4] | log2 fold change [5] | log2 fold change [6] | log2 fold change [7] | log2 fold change (vorinostat) | log2 fold change (silmitasertib) | log2 fold change [8] | log2 fold change (entospletinib)
1 | COG3 (UniProt Q96JB2) | inactive: -0.02 | inactive: -0.023 | inactive: -0.13 | inactive: -0.002 | inactive: 0.023 | inactive: -0.097 | inactive: 0.022 | inactive: 0.044 | inactive: 0.024 | inactive: -0.083 | inactive: 0.011 | active: -0.314 | inactive: 0.123 | inactive: 0.06 | inactive: -0.017
2 | COX7A2L (UniProt O14548) | inactive: 0.003 | inactive: 0.063 | inactive: 0.056 | inactive: 0.078 | inactive: 0.014 | inactive: -0.063 | inactive: -0.011 | inactive: -0.008 | inactive: -0.03 | inactive: -0.033 | inactive: -0.095 | inactive: 0.119 | inactive: -0.095 | inactive: 0.02 | inactive: -0.009
3 | CPNE8 (UniProt Q86YQ8) | inactive: -0.137 | inactive: 0.01 | inactive: 0.111 | inactive: -0.007 | inactive: 0.12 | inactive: -0.083 | inactive: 0.011 | inactive: 0.078 | inactive: 0.061 | inactive: 0.102 | inactive: 0.075 | inactive: -0.054 | inactive: 0.079 | inactive: 0.018 | 
4 | COPZ1 isoform 4 (UniProt P61923) | inactive: 0.012 | inactive: 0 | inactive: 0.015 | inactive: 0.088 | inactive: 0.023 | inactive: 0.289 | inactive: 0.002 | inactive: -0.029 | inactive: -0.103 | inactive: 0.037 | inactive: -0.068 | inactive: 0.188 | inactive: -0.032 | inactive: 0.163 | inactive: -0.025
5 | CPED1 (UniProt A4D0V7) | inactive: 0.054 | inactive: 0.061 | inactive: -0.164 | inactive: -0.062 | inactive: -0.002 | inactive: -0.021 | inactive: 0.045 | inactive: 0.049 | inactive: 0.022 | inactive: 0.162 | inactive: 0.025 | inactive: -0.05 | inactive: 0.033 | inactive: 0.031 | inactive: 0
6 | CNOT11 (UniProt Q9UKZ1) | inactive: -0.04 | inactive: -0.033 | inactive: -0.052 | inactive: -0.017 | inactive: 0.005 | inactive: -0.095 | inactive: 0.026 | inactive: 0.056 | inactive: 0.017 | inactive: -0.008 | inactive: -0.008 | inactive: -0.178 | inactive: 0.027 | inactive: 0.022 | inactive: -0.01
7 | COPS2 isoform 2 (UniProt P61201) | inactive: 0.007 | inactive: -0.022 | inactive: -0.025 | inactive: -0.005 | inactive: -0.004 | inactive: 0.084 | inactive: 0.023 | inactive: 0.004 | inactive: -0.016 | inactive: -0.002 | inactive: -0.022 | inactive: 0.021 | inactive: 0.008 | inactive: 0.021 | inactive: 0.016
8 | COA7 (UniProt Q96BR5) | inactive: -0.042 | inactive: 0.005 | inactive: 0.001 | inactive: 0.003 | inactive: 0.035 | inactive: 0.095 | inactive: -0.001 | inactive: -0.025 | inactive: -0.008 | inactive: 0.041 | inactive: 0.003 | inactive: 0.079 | inactive: -0.023 | inactive: -0.011 | inactive: -0.041
9 | CNDP2 (UniProt Q96KP4) | inactive: 0.039 | inactive: -0.023 | inactive: 0.017 | inactive: 0.051 | inactive: -0.05 | inactive: -0.074 | inactive: -0.008 | inactive: 0.004 | inactive: 0.013 | inactive: -0.003 | inactive: 0.023 | inactive: 0.133 | inactive: -0.025 | inactive: -0.008 | inactive: 0.01
10 | CPD (UniProt O75976) | inactive: -0.003 | inactive: -0.008 | inactive: -0.003 | inactive: -0.007 | inactive: -0.017 | inactive: -0.012 | inactive: 0.01 | inactive: -0.008 | inactive: -0.012 | inactive: -0.053 | inactive: -0.005 | inactive: 0.13 | inactive: -0.028 | inactive: -0.008 | inactive: 0.005
11 | CNN1 (UniProt P51911) | inactive: -0.022 | inactive: 0.02 | inactive: 0.006 | inactive: 0.081 | inactive: -0.038 | inactive: 0.011 | inactive: -0.109 | inactive: -0.041 | inactive: 0.04 | inactive: -0.009 | inactive: -0.014 | inactive: -0.013 | inactive: -0.005 | inactive: -0.005 | inactive: 0.045
12 | CPSF4 (UniProt O95639) | inactive: -0.007 | inactive: 0 | inactive: -0.133 | inactive: 0.05 | inactive: -0.009 | inactive: 0.017 | inactive: 0.021 | inactive: 0.011 | inactive: -0.047 | inactive: 0.013 | inactive: 0.047 | inactive: -0.192 | inactive: -0.035 | inactive: -0.056 | inactive: -0.036
13 | COA1 (UniProt Q9GZY4) | inactive: -0.026 | inactive: 0 | inactive: -0.002 | inactive: -0.006 | inactive: 0.006 | inactive: -0.011 | inactive: 0.007 | inactive: -0.031 | inactive: 0.017 | inactive: -0.029 | inactive: 0.014 | inactive: 0.083 | inactive: 0.028 | inactive: -0.084 | inactive: -0.002
14 | COQ6 (UniProt Q9Y2Z9) | inactive: 0.026 | inactive: -0.043 | inactive: -0.044 | inactive: -0.034 | inactive: -0.114 | inactive: -0.023 | inactive: -0.033 | inactive: 0.032 | inactive: 0.017 | inactive: -0.011 | inactive: -0.003 | inactive: 0.2 | inactive: 0.025 | inactive: -0.018 | inactive: 0.012
15 | CNPY4 (UniProt Q8N129) | inactive: 0.143 | inactive: 0.123 | inactive: 0.144 | inactive: -0.131 | inactive: 0 | inactive: 0.092 | inactive: 0 | inactive: 0 | inactive: -0.077 | inactive: 0.038 | inactive: 0.041 | inactive: 0.089 | inactive: 0.048 | inactive: 0.086 | inactive: -0.01
16 | COL14A1 (UniProt Q05707) | inactive: 0.072 | inactive: 0.134 | inactive: 0.092 | inactive: 0.07 | inactive: -0.022 | inactive: -0.03 | inactive: -0.085 | inactive: -0.01 | inactive: 0.063 | inactive: -0.062 | inactive: -0.078 | inactive: 0.2 | inactive: -0.171 | inactive: 0 | 
17 | COPS3 (UniProt Q9UNS2) | inactive: -0.019 | inactive: 0.014 | inactive: 0.016 | inactive: 0.01 | inactive: -0.045 | inactive: -0.045 | inactive: 0.005 | inactive: 0.026 | inactive: -0.01 | inactive: -0.027 | inactive: 0.036 | inactive: 0.053 | inactive: -0.041 | inactive: 0.078 | inactive: 0.044
18 | CPVL (UniProt Q9H3G5) | inactive: -0.021 | inactive: 0.088 | inactive: -0.277 | inactive: -0.015 | inactive: -0.092 | inactive: -0.413 | inactive: -0.068 | inactive: -0.085 | inactive: 0.046 | inactive: 0.054 | inactive: 0.096 | inactive: 0.079 | inactive: -0.056 | inactive: -0.048 | 
19 | CPNE1 (UniProt Q99829) | inactive: -0.028 | inactive: -0.008 | inactive: 0.006 | inactive: 0.015 | inactive: 0.002 | inactive: -0.021 | inactive: 0.003 | inactive: 0.033 | inactive: -0.003 | inactive: -0.032 | inactive: -0.02 | inactive: -0.019 | inactive: 0.011 | inactive: 0 | inactive: -0.004
20 | COQ7 (UniProt Q99807) | inactive: -0.052 | inactive: 0.013 | inactive: -0.011 | inactive: 0.036 | inactive: 0.039 | inactive: -0.058 | inactive: -0.007 | inactive: 0.021 | inactive: 0.048 | inactive: -0.034 | inactive: -0.029 | inactive: 0.136 | inactive: 0.015 | inactive: -0.033 | inactive: -0.037
21 | COMMD7 (UniProt Q86VX2) | inactive: 0.02 | inactive: -0.015 | inactive: -0.006 | inactive: 0.019 | inactive: -0.014 | inactive: 0.028 | inactive: 0 | inactive: -0.03 | inactive: -0.005 | inactive: -0.015 | inactive: -0.037 | inactive: 0.018 | inactive: -0.039 | inactive: -0.015 | inactive: 0.003

Whole records, quoted from the list. Order of values: log2 fold change (nilotinib) | log2 fold change [1] | log2 fold change (dasatinib) | log2 fold change [2] | log2 fold change [3] | log2 fold change (quisinostat) | log2 fold change (tipifarnib) | log2 fold change [4] | log2 fold change [5] | log2 fold change [6] | log2 fold change [7] | log2 fold change (vorinostat) | log2 fold change (silmitasertib) | log2 fold change [8] | log2 fold change (entospletinib)
COPS2 isoform 2 (UniProt P61201) in the list: inactive: 0.007 | inactive: -0.022 | inactive: -0.025 | inactive: -0.005 | inactive: -0.004 | inactive: 0.084 | inactive: 0.023 | inactive: 0.004 | inactive: -0.016 | inactive: -0.002 | inactive: -0.022 | inactive: 0.021 | inactive: 0.008 | inactive: 0.021 | inactive: 0.016
COA7 (UniProt Q96BR5) in the list: inactive: -0.042 | inactive: 0.005 | inactive: 0.001 | inactive: 0.003 | inactive: 0.035 | inactive: 0.095 | inactive: -0.001 | inactive: -0.025 | inactive: -0.008 | inactive: 0.041 | inactive: 0.003 | inactive: 0.079 | inactive: -0.023 | inactive: -0.011 | inactive: -0.041
